No constants are given. Whether binding was seen depends on the method and setting. For some of these results: A result given as binding can be weak or reduced; the word gives no strength. For some of these results: Sequences can lack the tags named with a protein.
Columns and labels:
[1] = target: MmpL3 protein from M. tuberculosis, C-terminally hexahistidine-tagged, devoid of gfp fusion (M. tuberculosis) (UniProt P9WJV5); assay: SPR; MmpL3 immobilised on CM5 chip; analytes injected at two-fold increasing concentrations from 0.6 µM up to 10 µM, 10 µL/min for 30 sec, dissociation 180 sec, 25 °C; 20 mM HEPES pH 7.4, 150 mM NaCl, 0.2% Triton X-100 (0.03% DDM instead for AftD); global fit to the 1:1 Langmuir binding model; both purified
[2] = target: MmpL3 (full-size), T18/T25 fusion (M. tuberculosis) (UniProt P9WJV5); assay: two-hybrid
[3] = target: MmpL3tb^1–744, T18/T25 fusion (M. tuberculosis) (UniProt P9WJV5); assay: two-hybrid
[4] = target: T1, Rv0227c, T18/T25 fusion (M. tuberculosis) (UniProt P96409); assay: two-hybrid
T1 sequence: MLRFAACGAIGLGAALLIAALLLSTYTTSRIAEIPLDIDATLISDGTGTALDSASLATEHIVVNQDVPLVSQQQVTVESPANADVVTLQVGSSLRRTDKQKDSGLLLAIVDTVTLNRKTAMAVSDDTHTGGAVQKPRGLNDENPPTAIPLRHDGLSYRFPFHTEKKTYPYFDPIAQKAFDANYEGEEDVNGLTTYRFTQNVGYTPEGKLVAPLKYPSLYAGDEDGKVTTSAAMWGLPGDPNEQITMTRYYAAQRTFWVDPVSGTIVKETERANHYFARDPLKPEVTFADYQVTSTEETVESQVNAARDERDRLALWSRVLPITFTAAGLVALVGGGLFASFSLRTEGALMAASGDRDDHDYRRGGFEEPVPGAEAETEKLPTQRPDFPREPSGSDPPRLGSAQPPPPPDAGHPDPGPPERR

The chains behind the UniProt entries cited, without tags or fusion partners. Where a name states a change or a piece, a line headed by the entry shows the natural chain unless it says otherwise. Residues count along the entry.
UniProt P9WJV5: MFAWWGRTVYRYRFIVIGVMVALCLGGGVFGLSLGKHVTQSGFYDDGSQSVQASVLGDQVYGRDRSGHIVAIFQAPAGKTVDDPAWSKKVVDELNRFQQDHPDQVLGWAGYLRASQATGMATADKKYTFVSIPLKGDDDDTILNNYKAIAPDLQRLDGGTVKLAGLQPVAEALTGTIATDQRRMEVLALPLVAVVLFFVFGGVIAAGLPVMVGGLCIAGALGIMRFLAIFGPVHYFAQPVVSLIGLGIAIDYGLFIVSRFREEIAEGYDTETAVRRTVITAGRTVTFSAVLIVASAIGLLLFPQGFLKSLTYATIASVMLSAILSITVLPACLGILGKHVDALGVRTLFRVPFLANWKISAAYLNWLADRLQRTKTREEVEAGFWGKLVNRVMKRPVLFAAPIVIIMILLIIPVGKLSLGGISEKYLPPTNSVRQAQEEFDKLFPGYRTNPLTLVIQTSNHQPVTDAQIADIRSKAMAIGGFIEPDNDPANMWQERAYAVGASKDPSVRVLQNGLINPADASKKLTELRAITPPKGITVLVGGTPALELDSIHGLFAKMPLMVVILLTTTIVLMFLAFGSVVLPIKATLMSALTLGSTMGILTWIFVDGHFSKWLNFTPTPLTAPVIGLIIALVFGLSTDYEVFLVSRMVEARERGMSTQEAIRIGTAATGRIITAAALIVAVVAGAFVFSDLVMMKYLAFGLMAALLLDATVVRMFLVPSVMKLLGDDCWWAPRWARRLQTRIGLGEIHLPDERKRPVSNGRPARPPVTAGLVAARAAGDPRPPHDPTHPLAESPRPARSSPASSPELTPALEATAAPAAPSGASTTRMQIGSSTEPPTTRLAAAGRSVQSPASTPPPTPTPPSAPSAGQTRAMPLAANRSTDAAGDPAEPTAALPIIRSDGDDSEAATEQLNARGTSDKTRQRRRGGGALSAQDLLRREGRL
MmpL3tb^1–744, T18/T25 fusion: residues 1-744 of P9WJV5
UniProt P9WJK3: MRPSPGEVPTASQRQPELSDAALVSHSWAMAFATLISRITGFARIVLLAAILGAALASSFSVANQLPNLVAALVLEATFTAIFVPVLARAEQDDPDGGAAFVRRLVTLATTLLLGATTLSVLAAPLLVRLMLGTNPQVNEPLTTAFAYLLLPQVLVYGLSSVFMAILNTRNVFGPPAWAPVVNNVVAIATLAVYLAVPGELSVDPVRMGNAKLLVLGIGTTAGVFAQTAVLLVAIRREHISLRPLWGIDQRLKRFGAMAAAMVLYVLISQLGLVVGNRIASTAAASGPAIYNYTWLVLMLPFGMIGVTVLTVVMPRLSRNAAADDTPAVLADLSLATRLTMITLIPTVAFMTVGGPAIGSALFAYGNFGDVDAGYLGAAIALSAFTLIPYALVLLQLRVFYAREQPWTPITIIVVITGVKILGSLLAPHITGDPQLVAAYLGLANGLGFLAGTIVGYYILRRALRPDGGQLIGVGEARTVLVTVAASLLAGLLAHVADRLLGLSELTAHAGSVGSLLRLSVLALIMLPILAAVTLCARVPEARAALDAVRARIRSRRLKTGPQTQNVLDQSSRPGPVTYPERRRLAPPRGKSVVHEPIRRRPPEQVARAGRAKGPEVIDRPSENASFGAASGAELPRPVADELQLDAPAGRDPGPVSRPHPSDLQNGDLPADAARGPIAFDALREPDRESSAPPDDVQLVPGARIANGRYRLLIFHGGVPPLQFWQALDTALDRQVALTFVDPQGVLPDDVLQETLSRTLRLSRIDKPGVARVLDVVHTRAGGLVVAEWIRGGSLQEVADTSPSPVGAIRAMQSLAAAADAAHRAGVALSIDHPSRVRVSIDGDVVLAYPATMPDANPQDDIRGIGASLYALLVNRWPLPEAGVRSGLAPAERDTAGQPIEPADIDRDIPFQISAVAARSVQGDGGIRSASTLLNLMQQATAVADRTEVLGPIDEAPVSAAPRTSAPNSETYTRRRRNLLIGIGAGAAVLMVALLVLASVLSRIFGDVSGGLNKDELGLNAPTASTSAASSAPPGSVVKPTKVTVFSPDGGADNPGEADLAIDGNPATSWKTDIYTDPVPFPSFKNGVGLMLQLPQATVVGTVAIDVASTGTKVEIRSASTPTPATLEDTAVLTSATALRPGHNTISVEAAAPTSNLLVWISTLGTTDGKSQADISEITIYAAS

Substance	binding [1]	binding [2]	binding [3]	binding [4]
His-tagged MviN (from UniProt P9WJK3)	no binding (tested: 10 µM)	–	–	–
TmaT, T18/T25 fusion (from UniProt P96410)	–	binds	binds	binds

From article PMC6656915
